In paper PMC3814572, “Identification of Novel Compounds Inhibiting Chikungunya Virus-Induced Cell Death by High Throughput Screening of a Kinase Inhibitor Library” (PLoS Neglected Tropical Diseases, 2013):

Experiment: Counter-screening for resazurin fluorescence (compounds in culture medium without cells)
Details: 1.5 µM, 12 hours

First: CC(C)c1ccc(NC(=O)c2csc(C(O)C(C)C)n2)cc1 (stereo not drawn) [CND3514]
Second: COc1ccc(-c2ccc(C(=O)Nc3ccc(C(C)C)cc3)c3occc23)c(C)c1 [CND0364]
The “RFU (Mean ± SEM)” value of the first is lower: 123639 ± 696 RFU for the first, 126001 ± 1098 RFU for the second.

Going from `COc1ccc(-c2coc3c(C(=O)Nc4cccnc4)cccc23)c(C)c1` [CND0366] to `COc1ccc(-c2coc3c(C(=O)NC(C)C)cccc23)c(C)c1` [CND0415], the “RFU (Mean ± SEM)” value falls from 124331 ± 405 RFU to 123414 ± 429 RFU.

Compared with `COc1cccc(Nc2cc3c(cn2)cc(-c2cccc(C(F)(F)F)c2)n3C)c1` [CND0545], `COc1ccc(-c2ccc(C(=O)NC(C)C)c3occc23)c(C)c1` [CND0335] is higher in “RFU (Mean ± SEM)” value: 123282 ± 359 RFU for the first, 132660 ± 2366 RFU for the second.

Same assay, conditions: 3.1 µM, 12 hours

Going from `CC(C)c1ccc(NC(=O)c2csc(C(O)C(C)C)n2)cc1` (stereo not drawn) [CND3514] to `COc1ccc(-c2ccc(C(=O)Nc3ccc(C(C)C)cc3)c3occc23)c(C)c1` [CND0364], the “RFU (Mean ± SEM)” value rises from 123322 ± 336 RFU to 125687 ± 1255 RFU.

`COc1ccc(-c2coc3c(C(=O)Nc4cccnc4)cccc23)c(C)c1` [CND0366] and `COc1ccc(-c2coc3c(C(=O)NC(C)C)cccc23)c(C)c1` [CND0415] are within error of each other in “RFU (Mean ± SEM)” value: 124434 ± 115 RFU for the first, 124287 ± 99 RFU for the second.

Compared with `COc1cccc(Nc2cc3c(cn2)cc(-c2cccc(C(F)(F)F)c2)n3C)c1` [CND0545], `COc1ccc(-c2ccc(C(=O)NC(C)C)c3occc23)c(C)c1` [CND0335] is higher in “RFU (Mean ± SEM)” value: 124100 ± 341 RFU for the first, 132843 ± 3615 RFU for the second.

Same assay, conditions: 6.3 µM, 12 hours

First: CC(C)c1ccc(NC(=O)c2csc(C(O)C(C)C)n2)cc1 (stereo not drawn) [CND3514]
Second: COc1ccc(-c2ccc(C(=O)Nc3ccc(C(C)C)cc3)c3occc23)c(C)c1 [CND0364]
The “RFU (Mean ± SEM)” value of the first is lower: 122856 ± 122 RFU for the first, 125566 ± 922 RFU for the second.

First: COc1ccc(-c2coc3c(C(=O)Nc4cccnc4)cccc23)c(C)c1 [CND0366]
Second: COc1ccc(-c2coc3c(C(=O)NC(C)C)cccc23)c(C)c1 [CND0415]
The “RFU (Mean ± SEM)” value of the first is higher: 126123 ± 307 RFU for the first, 124545 ± 453 RFU for the second.

Compared with `COc1cccc(Nc2cc3c(cn2)cc(-c2cccc(C(F)(F)F)c2)n3C)c1` [CND0545], `COc1ccc(-c2ccc(C(=O)NC(C)C)c3occc23)c(C)c1` [CND0335] is higher in “RFU (Mean ± SEM)” value: 124272 ± 340 RFU for the first, 131901 ± 2890 RFU for the second.

Same assay, conditions: 12.5 µM, 12 hours

First: CC(C)c1ccc(NC(=O)c2csc(C(O)C(C)C)n2)cc1 (stereo not drawn) [CND3514]
Second: COc1ccc(-c2ccc(C(=O)Nc3ccc(C(C)C)cc3)c3occc23)c(C)c1 [CND0364]
The “RFU (Mean ± SEM)” value of the first is lower: 124101 ± 904 RFU for the first, 146299 ± 19909 RFU for the second.

First: COc1ccc(-c2coc3c(C(=O)Nc4cccnc4)cccc23)c(C)c1 [CND0366]
Second: COc1ccc(-c2coc3c(C(=O)NC(C)C)cccc23)c(C)c1 [CND0415]
The “RFU (Mean ± SEM)” value of the first is higher: 126522 ± 346 RFU for the first, 124241 ± 566 RFU for the second.

Going from `COc1cccc(Nc2cc3c(cn2)cc(-c2cccc(C(F)(F)F)c2)n3C)c1` [CND0545] to `COc1ccc(-c2ccc(C(=O)NC(C)C)c3occc23)c(C)c1` [CND0335], the “RFU (Mean ± SEM)” value rises from 124622 ± 203 RFU to 132612 ± 1892 RFU.

Same assay, conditions: 25.0 µM, 12 hours

Going from `CC(C)c1ccc(NC(=O)c2csc(C(O)C(C)C)n2)cc1` (stereo not drawn) [CND3514] to `COc1ccc(-c2ccc(C(=O)Nc3ccc(C(C)C)cc3)c3occc23)c(C)c1` [CND0364], the “RFU (Mean ± SEM)” value rises from 124121 ± 800 RFU to 126875 ± 548 RFU.

Compared with `COc1ccc(-c2coc3c(C(=O)Nc4cccnc4)cccc23)c(C)c1` [CND0366], `COc1ccc(-c2coc3c(C(=O)NC(C)C)cccc23)c(C)c1` [CND0415] is lower in “RFU (Mean ± SEM)” value: 127193 ± 177 RFU for the first, 124969 ± 805 RFU for the second.

First: COc1cccc(Nc2cc3c(cn2)cc(-c2cccc(C(F)(F)F)c2)n3C)c1 [CND0545]
Second: COc1ccc(-c2ccc(C(=O)NC(C)C)c3occc23)c(C)c1 [CND0335]
The “RFU (Mean ± SEM)” value of the first is lower: 124325 ± 663 RFU for the first, 134083 ± 2617 RFU for the second.

Same assay, conditions: 50.0 µM, 12 hours

First: CC(C)c1ccc(NC(=O)c2csc(C(O)C(C)C)n2)cc1 (stereo not drawn) [CND3514]
Second: COc1ccc(-c2ccc(C(=O)Nc3ccc(C(C)C)cc3)c3occc23)c(C)c1 [CND0364]
The “RFU (Mean ± SEM)” value of the first is lower: 123902 ± 509 RFU for the first, 127260 ± 1785 RFU for the second.

First: COc1ccc(-c2coc3c(C(=O)Nc4cccnc4)cccc23)c(C)c1 [CND0366]
Second: COc1ccc(-c2coc3c(C(=O)NC(C)C)cccc23)c(C)c1 [CND0415]
The “RFU (Mean ± SEM)” value of the first is higher: 128162 ± 70 RFU for the first, 123928 ± 552 RFU for the second.

First: COc1cccc(Nc2cc3c(cn2)cc(-c2cccc(C(F)(F)F)c2)n3C)c1 [CND0545]
Second: COc1ccc(-c2ccc(C(=O)NC(C)C)c3occc23)c(C)c1 [CND0335]
The “RFU (Mean ± SEM)” value of the first is lower: 123847 ± 427 RFU for the first, 134468 ± 2782 RFU for the second.
